Values from PubChem BioAssay AID1259254 (NCATS, 2017)
The whole screen tested about 59,000 reagents; this is a random part of them. In the full data, about 1,550 (2.6%) are marked active. 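G2 share is only a proxy for re-replication; each gene was hit by three separate siRNAs, and active genes were retested.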 The raw values are shown without normalisation. The numbers tell different reagents against one gene apart. The record does not give: the amount of reagent.

Purpose: 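Gene knock-downs that lead to re-replication, shown by excess G2 DNA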 (primary screen)
System: human HCT116 colorectal cancer cells
Knock-down reagent: single siRNA against human genes
Time to read-out: 3 days
Read-out: 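Nuclei stained with Hoechst and imaged; cell-cycle phase assigned by DNA content; G2 share scaled per plate, non-targeting siRNA 0%, GMNN siRNA 100%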
Reading the numbers: G2 robust z-score and G2 cells, % of GMNN control: higher = more G2 cells, more excess DNA replication; raw share of cells in G2: higher = larger share of cells with G2 DNA content
Rule for the call: 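Active siRNAs have a G2 robust z of 5 or more median absolute deviations over the median, which in these data means about 38% or higher of GMNN control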

Gene | siRNA no. | G2 robust z-score | G2 cells, % of GMNN control | raw share of cells in G2 (%) | call
UGT2B10 | 1 | 0.569 | 6.97 | 8.54 | inactive
UGT2B10 | 2 | 2.97 | 23.9 | 12.3 | inactive
UGT2B10 | 3 | 0.0585 | 3.38 | 5.52 | inactive
PRSS36 | 1 | 1.38 | 12.7 | 10.9 | inactive
PRSS36 | 2 | -0.396 | 0.184 | 4.54 | inactive
PRSS36 | 3 | 1.56 | 13.9 | 9.44 | inactive
PARD3 | 1 | -0.227 | 1.37 | 3.28 | inactive
PARD3 | 2 | 0.968 | 9.78 | 10.3 | inactive
PARD3 | 3 | -0.347 | 0.525 | 3.8 | inactive
NLRP2 | 1 | -0.00595 | 2.93 | 5.65 | inactive
NLRP2 | 2 | 2.26 | 18.8 | 11.9 | inactive
NLRP2 | 3 | -0.633 | -1.48 | 2.66 | inactive
ISLR2 | 1 | 3.74 | 29.3 | 14.9 | inactive
ISLR2 | 2 | 0.284 | 4.96 | 6.1 | inactive
ISLR2 | 3 | -0.568 | -1.03 | 5.22 | inactive
KRTAP2-4 | 1 | -0.421 | 0.00881 | 3 | inactive
KRTAP2-4 | 2 | 0.321 | 5.22 | 4.58 | inactive
KRTAP2-4 | 3 | 3.75 | 29.3 | 16.5 | inactive
GHRHR | 1 | -1.59 | -8.23 | 2.9 | inactive
GHRHR | 2 | -0.846 | -2.98 | 3.47 | inactive
GHRHR | 3 | 1.39 | 12.8 | 7.19 | inactive
RFC5 | 1 | -0.885 | -3.26 | 3.86 | inactive
RFC5 | 2 | 1.53 | 13.8 | 9.93 | inactive
RFC5 | 3 | 0.202 | 4.39 | 5.61 | inactive
EIPR1 | 1 | 1.12 | 10.8 | 9.94 | inactive
EIPR1 | 2 | 4.54 | 34.9 | 17.7 | inactive
EIPR1 | 3 | 0.736 | 8.14 | 6.23 | inactive
RGS16 | 1 | 0.75 | 8.24 | 7.81 | inactive
RGS16 | 2 | -0.501 | -0.558 | 4.47 | inactive
RGS16 | 3 | -1.05 | -4.41 | 2.68 | inactive
MYLK4 | 1 | -0.073 | 2.45 | 4.83 | inactive
MYLK4 | 2 | 0.116 | 3.78 | 4.91 | inactive
MYLK4 | 3 | 0.323 | 5.24 | 6.3 | inactive
STAT4 | 1 | 0.612 | 7.27 | 8.13 | inactive
STAT4 | 2 | -0.163 | 1.82 | 5.17 | inactive
STAT4 | 3 | 0.317 | 5.2 | 5.68 | inactive
CNTNAP1 | 1 | -0.329 | 0.653 | 4.94 | inactive
CNTNAP1 | 2 | 2.12 | 17.9 | 11.6 | inactive
CNTNAP1 | 3 | 1.05 | 10.3 | 9.24 | inactive
ASTN1 | 1 | -0.518 | -0.679 | 4.98 | inactive
ASTN1 | 2 | -0.449 | -0.195 | 4.02 | inactive
ASTN1 | 3 | -0.295 | 0.894 | 3.87 | inactive
H3C4 | 1 | -0.745 | -2.27 | 4.12 | inactive
H3C4 | 2 | 0.133 | 3.9 | 5.44 | inactive
H3C4 | 3 | 1.19 | 11.4 | 7.37 | inactive
KCNN2 | 1 | 1.6 | 14.2 | 9.93 | inactive
KCNN2 | 2 | 0.074 | 3.49 | 6.56 | inactive
KCNN2 | 3 | -0.566 | -1.02 | 4.44 | inactive

2 successive records already listed, for reference:
Gene | siRNA no. | G2 robust z-score | G2 cells, % of GMNN control | raw share of cells in G2 (%) | call
PRSS36 | 1 | 1.38 | 12.7 | 10.9 | inactive
PRSS36 | 2 | -0.396 | 0.184 | 4.54 | inactive
